Measurements: PMC4470917
No constants are given. Whether binding was seen depends on the method and setting. Some binding calls cover weakened binding; strength is not graded here.

By UniProt entry, the sequences of proteins in these tests, tags left out.
UniProt P00563: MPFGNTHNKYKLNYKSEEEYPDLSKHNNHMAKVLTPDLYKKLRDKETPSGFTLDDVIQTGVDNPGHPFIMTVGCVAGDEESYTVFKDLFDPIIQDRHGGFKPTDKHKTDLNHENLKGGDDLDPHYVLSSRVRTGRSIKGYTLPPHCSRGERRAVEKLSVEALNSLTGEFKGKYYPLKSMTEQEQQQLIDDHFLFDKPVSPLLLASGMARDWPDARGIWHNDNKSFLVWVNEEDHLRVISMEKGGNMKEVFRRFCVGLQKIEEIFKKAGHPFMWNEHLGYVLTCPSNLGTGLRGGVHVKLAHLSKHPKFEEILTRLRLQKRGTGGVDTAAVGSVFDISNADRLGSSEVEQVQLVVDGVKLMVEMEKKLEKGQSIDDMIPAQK
UniProt P05120: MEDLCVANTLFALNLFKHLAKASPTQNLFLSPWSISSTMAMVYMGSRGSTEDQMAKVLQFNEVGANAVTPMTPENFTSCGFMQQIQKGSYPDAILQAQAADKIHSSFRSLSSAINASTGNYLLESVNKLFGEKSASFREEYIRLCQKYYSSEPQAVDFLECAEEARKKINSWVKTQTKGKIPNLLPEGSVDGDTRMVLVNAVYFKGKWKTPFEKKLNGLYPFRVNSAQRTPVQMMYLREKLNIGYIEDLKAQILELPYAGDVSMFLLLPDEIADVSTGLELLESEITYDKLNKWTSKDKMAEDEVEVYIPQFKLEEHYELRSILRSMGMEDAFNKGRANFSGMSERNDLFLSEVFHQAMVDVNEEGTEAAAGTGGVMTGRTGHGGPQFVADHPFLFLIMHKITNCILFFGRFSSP

Legend:
[1] = target: creatine phosphokinase (CPK) (UniProt P00563); experiment: ELISA; stressed protein on the plate (CPK or CS overnight at 43°C; BSA overnight at 37°C with 20 mM DTT, then 5 mM iodoacetic acid); serial dilution of SerpinB2 (6.25–250 μg.ml^-1), 1.5 h at 37°C; antibody detection; both purified
[2] = target: T1, porcine citrate synthase (CS) (porcine) (UniProt P00889); experiment: as above
T1 sequence: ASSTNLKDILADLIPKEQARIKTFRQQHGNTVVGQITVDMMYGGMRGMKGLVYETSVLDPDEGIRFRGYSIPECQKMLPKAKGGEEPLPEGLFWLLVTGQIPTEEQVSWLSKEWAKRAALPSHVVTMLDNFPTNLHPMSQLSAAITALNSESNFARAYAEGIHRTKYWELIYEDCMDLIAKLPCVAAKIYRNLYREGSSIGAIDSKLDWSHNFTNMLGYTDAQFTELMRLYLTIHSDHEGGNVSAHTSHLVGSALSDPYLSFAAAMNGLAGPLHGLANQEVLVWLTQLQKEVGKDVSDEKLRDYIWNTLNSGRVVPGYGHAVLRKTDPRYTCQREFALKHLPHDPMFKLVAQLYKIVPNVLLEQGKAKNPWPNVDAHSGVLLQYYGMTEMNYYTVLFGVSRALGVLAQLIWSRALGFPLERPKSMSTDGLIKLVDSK

[3] = target: T1, porcine citrate synthase (CS) (porcine); experiment: ELISA; native control protein on the plate (CPK or CS overnight at 4°C; BSA overnight at 37°C without DTT); serial dilution of SerpinB2 (6.25–250 μg.ml^-1), 1.5 h at 37°C; antibody detection; both purified
[4] = target: creatine phosphokinase (CPK) (UniProt P00563); experiment: condition: only native CPK (4°C control); SerpinB2 6.25–250 μg.ml^-1, 1.3 nM–5.3 μM; ELISA; native control protein on the plate (CPK or CS overnight at 4°C; BSA overnight at 37°C without DTT); serial dilution of SerpinB2 (6.25–250 μg.ml^-1), 1.5 h at 37°C; antibody detection; both purified

binding [1]: binds | binding [2]: binds weakly | binding [3]: binds weakly | binding [4]: no binding
Substance: Recombinant human SerpinB2 (47 kDa) (from UniProt P05120 1-415)
